The assay relates to rats (monosodium-iodoacetate model of osteoarthritis). Put plainly: monosodium-iodoacetate model of osteoarthritis: lameness (dynamic weight bearing). The conditions noted are these: intrathecal 15 μg, Days 2-4 and Days 22-24.

As for `CN1CC[C@]23c4c5ccc(O)c4O[C@H]2[C@@H](O)C=C[C@H]3[C@H]1C5.O=S(=O)(O)O` [morphine sulfate, reference compound], the “magnitude of efficacy on lameness, early versus late phase” value was “comparable in the early and late phases”.

The values above are taken from patent US11872219B2 (priority 2018, dated 2024).
